The text below walks through data of patent publication US20250034268A1.

These are yes or no findings as the source states them, for the method shown. A result given as binding can be weak or reduced; the word gives no strength.

The target of test [1] is recombinant rat BCMA protein (rat). Nature of the test: SPR (Biacore T200). For orientation: SPR reads the build-up and loss of mass on a sensor chip optically.
The target is the same in test [2]. Nature of the test: SPR (Biacore T200), antibody captured by anti-human Fc IgG on a CM5 chip, BCMA in the mobile phase; concentrations are not printed on the sheet.

B1: ADI-38497 PG antibody (antibody, V domains shown)
VH: QLQLQESGPGLVKPSETLSLTCTVSGGSIVSSSYYWTWIRQPPGKGLEWIGSISIAGSTYYNPSLKSRVTISVDTSKNQFSLKLSSVTAADTAVYYCARDRGDQILDVWSQGTMVTVSS
VL: DIQMTQSPSSLSASVGDRVTITCRASQSISRYLNWYQQKPGKAPKLLIYAASSLQSGVPSRFSGSGSGTDFTLTISSLQPEDFATYYCQQKYFDITFGGGTKVEIKR
Take B1: the binding result in test [1] and in test [2] was “binds” in each case.
